Experimental findings from PMC10238091 are described below.

Amino acid sequences for entries named in this document (tags omitted).
UniProt Q9UQE7: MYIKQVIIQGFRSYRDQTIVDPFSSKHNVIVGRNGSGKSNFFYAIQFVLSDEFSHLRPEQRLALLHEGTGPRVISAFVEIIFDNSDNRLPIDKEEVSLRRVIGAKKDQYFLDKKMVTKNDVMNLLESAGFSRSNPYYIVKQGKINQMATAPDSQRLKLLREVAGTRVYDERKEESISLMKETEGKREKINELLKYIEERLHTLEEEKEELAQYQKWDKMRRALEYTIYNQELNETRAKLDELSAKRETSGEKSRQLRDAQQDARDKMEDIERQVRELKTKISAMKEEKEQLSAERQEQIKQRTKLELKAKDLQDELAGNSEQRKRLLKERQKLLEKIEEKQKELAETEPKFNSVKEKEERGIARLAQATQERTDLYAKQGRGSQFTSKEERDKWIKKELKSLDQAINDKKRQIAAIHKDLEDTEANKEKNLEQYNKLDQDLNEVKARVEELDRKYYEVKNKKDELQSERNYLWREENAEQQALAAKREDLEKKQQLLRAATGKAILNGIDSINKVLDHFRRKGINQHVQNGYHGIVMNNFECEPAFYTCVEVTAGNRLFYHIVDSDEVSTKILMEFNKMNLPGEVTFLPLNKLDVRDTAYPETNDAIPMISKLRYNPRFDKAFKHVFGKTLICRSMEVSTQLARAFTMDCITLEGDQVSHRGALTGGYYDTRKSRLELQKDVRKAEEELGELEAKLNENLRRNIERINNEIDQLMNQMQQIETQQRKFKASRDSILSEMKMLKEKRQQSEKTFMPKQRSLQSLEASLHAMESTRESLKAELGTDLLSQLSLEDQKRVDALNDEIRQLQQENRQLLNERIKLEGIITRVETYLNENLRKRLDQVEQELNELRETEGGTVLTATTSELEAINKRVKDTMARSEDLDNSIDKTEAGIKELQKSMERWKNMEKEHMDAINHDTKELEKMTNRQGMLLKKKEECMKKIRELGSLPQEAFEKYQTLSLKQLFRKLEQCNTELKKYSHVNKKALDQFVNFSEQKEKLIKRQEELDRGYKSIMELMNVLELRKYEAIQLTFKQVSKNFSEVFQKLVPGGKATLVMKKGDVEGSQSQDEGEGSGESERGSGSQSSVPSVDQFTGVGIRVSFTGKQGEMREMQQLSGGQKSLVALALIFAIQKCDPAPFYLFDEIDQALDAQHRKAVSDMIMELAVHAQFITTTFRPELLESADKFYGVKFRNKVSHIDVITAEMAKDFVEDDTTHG
UniProt Q92616: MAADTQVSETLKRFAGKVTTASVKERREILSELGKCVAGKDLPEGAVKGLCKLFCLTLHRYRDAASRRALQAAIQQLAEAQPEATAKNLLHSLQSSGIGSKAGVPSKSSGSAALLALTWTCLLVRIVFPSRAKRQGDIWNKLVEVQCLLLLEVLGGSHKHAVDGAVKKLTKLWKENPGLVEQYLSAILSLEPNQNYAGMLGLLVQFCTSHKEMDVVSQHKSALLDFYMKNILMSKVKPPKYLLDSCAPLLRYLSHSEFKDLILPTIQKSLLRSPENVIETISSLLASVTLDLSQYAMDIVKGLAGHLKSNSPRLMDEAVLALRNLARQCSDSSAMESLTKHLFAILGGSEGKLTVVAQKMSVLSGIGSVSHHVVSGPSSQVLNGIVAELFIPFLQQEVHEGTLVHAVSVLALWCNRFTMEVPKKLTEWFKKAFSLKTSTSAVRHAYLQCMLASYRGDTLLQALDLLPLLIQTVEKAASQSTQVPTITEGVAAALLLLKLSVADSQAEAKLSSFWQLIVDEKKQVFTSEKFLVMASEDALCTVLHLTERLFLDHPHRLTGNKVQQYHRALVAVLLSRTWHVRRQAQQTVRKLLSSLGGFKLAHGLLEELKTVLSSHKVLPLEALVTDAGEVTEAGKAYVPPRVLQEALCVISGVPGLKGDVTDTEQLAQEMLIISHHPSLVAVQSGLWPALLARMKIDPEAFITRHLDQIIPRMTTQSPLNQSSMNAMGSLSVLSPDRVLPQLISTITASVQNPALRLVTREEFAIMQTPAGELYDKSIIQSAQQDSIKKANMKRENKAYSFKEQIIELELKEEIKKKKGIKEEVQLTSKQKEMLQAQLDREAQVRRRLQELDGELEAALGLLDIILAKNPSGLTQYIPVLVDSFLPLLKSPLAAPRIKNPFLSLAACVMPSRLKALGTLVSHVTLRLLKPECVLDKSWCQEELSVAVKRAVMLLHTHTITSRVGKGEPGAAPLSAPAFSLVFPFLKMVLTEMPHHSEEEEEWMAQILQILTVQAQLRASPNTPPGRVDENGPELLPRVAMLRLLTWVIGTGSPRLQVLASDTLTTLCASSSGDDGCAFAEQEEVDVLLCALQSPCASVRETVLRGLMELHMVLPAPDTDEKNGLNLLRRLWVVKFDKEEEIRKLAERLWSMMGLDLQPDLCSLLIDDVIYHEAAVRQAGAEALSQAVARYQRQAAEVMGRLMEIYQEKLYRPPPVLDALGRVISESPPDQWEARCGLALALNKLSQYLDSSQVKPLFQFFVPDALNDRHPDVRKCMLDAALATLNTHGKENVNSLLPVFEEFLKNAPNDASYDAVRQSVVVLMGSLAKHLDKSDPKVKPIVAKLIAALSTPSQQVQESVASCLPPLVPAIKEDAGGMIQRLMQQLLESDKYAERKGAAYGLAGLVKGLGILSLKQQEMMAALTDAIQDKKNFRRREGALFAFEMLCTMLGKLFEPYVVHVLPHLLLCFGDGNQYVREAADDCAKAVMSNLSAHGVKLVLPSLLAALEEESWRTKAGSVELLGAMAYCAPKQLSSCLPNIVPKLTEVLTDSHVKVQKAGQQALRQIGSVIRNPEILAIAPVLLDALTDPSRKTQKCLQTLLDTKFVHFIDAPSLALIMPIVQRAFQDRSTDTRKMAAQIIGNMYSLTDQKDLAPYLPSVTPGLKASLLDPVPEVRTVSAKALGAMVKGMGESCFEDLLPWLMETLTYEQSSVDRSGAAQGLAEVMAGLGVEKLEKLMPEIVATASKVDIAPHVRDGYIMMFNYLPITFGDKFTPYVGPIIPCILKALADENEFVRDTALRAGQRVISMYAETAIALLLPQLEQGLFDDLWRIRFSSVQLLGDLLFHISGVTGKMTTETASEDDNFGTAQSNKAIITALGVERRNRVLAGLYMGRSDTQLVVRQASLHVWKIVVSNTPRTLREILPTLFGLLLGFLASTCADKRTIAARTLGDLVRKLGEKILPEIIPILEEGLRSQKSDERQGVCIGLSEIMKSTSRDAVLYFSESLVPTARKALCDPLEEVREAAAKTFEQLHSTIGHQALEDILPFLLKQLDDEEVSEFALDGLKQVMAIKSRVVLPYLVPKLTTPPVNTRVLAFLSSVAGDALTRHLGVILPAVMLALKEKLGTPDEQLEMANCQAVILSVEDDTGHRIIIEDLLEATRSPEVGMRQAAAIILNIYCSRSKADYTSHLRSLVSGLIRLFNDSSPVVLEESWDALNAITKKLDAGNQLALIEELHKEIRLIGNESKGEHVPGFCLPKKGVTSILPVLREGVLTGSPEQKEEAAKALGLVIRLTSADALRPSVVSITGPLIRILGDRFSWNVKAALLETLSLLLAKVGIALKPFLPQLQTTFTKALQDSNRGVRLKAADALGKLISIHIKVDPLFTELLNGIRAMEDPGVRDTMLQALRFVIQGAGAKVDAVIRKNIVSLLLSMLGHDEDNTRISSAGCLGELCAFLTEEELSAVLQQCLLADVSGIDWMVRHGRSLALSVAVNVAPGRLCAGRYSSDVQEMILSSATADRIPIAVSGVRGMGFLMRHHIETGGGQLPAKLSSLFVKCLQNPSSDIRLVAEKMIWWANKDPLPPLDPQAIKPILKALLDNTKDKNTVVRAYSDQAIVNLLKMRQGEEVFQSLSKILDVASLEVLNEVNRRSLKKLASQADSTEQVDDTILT
UniProt Q92833: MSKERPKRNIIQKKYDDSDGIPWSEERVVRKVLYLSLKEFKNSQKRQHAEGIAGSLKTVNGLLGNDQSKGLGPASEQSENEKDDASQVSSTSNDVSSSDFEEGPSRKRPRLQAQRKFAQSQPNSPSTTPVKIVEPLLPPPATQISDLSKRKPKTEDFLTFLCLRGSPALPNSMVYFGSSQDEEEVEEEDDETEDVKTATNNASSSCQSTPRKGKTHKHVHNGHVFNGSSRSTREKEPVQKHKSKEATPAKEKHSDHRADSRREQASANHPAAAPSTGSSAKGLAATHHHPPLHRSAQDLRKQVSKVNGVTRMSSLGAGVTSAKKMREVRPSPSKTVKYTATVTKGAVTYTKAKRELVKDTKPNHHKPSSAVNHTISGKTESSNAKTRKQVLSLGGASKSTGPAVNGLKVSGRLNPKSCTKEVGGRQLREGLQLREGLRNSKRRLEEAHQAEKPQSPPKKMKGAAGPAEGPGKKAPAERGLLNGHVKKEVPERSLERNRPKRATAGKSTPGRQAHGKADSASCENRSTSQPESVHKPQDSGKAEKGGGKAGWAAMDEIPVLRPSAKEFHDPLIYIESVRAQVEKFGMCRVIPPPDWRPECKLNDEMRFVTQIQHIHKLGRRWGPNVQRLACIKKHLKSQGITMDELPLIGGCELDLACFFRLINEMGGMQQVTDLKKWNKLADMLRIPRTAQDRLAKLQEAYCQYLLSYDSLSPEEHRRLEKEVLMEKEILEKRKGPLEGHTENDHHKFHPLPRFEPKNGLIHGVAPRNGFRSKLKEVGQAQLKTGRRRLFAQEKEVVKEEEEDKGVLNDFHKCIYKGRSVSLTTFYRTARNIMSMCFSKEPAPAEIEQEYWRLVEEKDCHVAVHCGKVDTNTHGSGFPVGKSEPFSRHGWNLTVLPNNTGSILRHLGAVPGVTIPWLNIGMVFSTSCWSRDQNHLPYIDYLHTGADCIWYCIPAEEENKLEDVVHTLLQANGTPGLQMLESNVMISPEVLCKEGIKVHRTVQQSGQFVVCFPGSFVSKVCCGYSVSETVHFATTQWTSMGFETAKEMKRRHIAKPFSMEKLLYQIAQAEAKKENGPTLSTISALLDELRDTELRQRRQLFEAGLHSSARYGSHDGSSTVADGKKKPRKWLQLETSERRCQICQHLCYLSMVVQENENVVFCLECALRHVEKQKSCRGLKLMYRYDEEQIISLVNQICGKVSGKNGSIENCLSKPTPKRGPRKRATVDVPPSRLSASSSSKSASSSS
UniProt Q07955: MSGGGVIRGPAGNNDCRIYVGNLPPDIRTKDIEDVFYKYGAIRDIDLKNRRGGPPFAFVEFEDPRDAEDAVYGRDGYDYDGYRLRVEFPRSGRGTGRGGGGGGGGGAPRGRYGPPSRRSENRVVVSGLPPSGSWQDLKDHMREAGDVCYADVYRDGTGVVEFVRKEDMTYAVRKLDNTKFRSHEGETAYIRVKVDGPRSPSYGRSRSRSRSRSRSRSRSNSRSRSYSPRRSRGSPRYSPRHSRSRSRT
UniProt O60506: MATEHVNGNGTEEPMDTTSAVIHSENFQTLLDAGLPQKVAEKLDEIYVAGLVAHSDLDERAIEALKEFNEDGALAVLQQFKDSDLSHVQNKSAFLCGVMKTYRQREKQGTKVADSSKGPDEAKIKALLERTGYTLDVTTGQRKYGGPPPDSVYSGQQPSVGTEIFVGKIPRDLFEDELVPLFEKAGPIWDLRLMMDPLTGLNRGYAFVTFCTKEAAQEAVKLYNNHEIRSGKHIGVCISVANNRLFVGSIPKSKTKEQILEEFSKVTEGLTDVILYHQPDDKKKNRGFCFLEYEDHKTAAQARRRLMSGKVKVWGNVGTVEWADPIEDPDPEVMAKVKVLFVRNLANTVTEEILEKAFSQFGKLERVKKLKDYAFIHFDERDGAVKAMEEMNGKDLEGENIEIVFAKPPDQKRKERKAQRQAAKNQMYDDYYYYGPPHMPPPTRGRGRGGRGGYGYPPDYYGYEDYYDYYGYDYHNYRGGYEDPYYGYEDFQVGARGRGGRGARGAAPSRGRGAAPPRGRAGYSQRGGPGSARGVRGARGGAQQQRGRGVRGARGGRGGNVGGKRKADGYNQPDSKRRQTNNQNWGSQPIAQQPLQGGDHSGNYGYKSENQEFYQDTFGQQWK

The target in the assay is T1, SA1 (Stromalin Antigen 1, STAG1) (human (endogenous in HCT116 and HeLa)) (UniProt Q8WVM7).
T1 sequence: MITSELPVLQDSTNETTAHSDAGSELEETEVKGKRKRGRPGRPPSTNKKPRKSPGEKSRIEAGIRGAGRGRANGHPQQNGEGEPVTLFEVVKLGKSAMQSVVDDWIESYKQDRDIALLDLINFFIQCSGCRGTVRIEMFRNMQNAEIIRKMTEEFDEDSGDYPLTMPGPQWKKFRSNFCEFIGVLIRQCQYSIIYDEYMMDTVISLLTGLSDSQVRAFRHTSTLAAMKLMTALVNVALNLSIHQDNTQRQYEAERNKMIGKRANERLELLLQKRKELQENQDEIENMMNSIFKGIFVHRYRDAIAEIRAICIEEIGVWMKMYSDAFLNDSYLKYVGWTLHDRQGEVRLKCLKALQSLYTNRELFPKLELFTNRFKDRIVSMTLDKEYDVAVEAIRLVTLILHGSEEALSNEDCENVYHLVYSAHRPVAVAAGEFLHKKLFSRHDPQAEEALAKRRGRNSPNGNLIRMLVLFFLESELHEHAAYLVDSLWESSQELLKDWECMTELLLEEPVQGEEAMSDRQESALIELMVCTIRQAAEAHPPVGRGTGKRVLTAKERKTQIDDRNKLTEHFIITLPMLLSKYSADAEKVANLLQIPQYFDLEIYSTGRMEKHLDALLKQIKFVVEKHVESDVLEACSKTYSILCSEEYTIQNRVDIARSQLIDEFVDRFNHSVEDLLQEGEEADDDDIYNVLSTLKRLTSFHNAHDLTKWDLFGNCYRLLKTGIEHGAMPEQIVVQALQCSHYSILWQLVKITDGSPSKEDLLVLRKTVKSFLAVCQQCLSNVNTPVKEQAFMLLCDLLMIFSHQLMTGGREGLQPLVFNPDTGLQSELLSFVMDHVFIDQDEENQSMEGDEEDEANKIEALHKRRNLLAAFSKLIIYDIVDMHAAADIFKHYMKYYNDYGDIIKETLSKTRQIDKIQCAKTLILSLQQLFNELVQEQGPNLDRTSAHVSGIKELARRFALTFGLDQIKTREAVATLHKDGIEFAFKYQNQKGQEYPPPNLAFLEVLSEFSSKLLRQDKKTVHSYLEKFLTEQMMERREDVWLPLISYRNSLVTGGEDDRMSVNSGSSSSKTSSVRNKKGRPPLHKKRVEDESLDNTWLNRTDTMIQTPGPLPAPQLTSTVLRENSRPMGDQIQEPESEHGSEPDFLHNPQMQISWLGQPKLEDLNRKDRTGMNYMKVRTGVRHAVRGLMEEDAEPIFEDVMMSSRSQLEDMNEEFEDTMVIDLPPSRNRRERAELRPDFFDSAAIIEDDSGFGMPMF
In words: affinity purification with mass spectrometry; endogenous SA1 IP (15 μg antibody, 2 mg chromatin extract) from RAD21mAC cells untreated or IAA 4 h, with IgG and siSA1 controls; LC-MS/MS, three biological replicates.

Results are given in words; binding and its absence hold for the method and conditions named. Binding seen in cells or lysates may run through a third protein. A yes stands for co-enrichment or nearness to the bait. Other partners may have been found. Tags and fused reporters may be left off the sequences shown.

As to SMC3 (from UniProt Q9UQE7 1-1217), the binding entry is listed as “binds”.

GCN1L1 (from UniProt Q92616 1-2671): the binding entry is “binds”.

In the case of SON (from UniProt P18583 1-2426), the binding entry is “binds”.

For the molecule JARID2 (from UniProt Q92833 1-1246), the binding entry is “binds”.

With SRSF1 (from UniProt Q07955 1-248), the binding result was “binds”.

Turning to SYNCRIP (from UniProt O60506 1-623), the binding entry is on record as “binds”.

B1: PDS5B (protein, UniProt Q9NTI5 1-1447)
chain: MAHSKTRTNDGKITYPPGVKEISDKISKEEMVRRLKMVVKTFMDMDQDSEEEKELYLNLALHLASDFFLKHPDKDVRLLVACCLADIFRIYAPEAPYTSPDKLKDIFMFITRQLKGLEDTKSPQFNRYFYLLENIAWVKSYNICFELEDSNEIFTQLYRTLFSVINNGHNQKVHMHMVDLMSSIICEGDTVSQELLDTVLVNLVPAHKNLNKQAYDLAKALLKRTAQAIEPYITNFFNQVLMLGKTSISDLSEHVFDLILELYNIDSHLLLSVLPQLEFKLKSNDNEERLQVVKLLAKMFGAKDSELASQNKPLWQCYLGRFNDIHVPIRLECVKFASHCLMNHPDLAKDLTEYLKVRSHDPEEAIRHDVIVSIVTAAKKDILLVNDHLLNFVRERTLDKRWRVRKEAMMGLAQIYKKYALQSAAGKDAAKQIAWIKDKLLHIYYQNSIDDRLLVERIFAQYMVPHNLETTERMKCLYYLYATLDLNAVKALNEMWKCQNLLRHQVKDLLDLIKQPKTDASVKAIFSKVMVITRNLPDPGKAQDFMKKFTQVLEDDEKIRKQLEVLVSPTCSCKQAEGCVREITKKLGNPKQPTNPFLEMIKFLLERIAPVHIDTESISALIKQVNKSIDGTADDEDEGVPTDQAIRAGLELLKVLSFTHPISFHSAETFESLLACLKMDDEKVAEAALQIFKNTGSKIEEDFPHIRSALLPVLHHKSKKGPPRQAKYAIHCIHAIFSSKETQFAQIFEPLHKSLDPSNLEHLITPLVTIGHIALLAPDQFAAPLKSLVATFIVKDLLMNDRLPGKKTTKLWVPDEEVSPETMVKIQAIKMMVRWLLGMKNNHSKSGTSTLRLLTTILHSDGDLTEQGKISKPDMSRLRLAAGSAIVKLAQEPCYHEIITLEQYQLCALAINDECYQVRQVFAQKLHKGLSRLRLPLEYMAICALCAKDPVKERRAHARQCLVKNINVRREYLKQHAAVSEKLLSLLPEYVVPYTIHLLAHDPDYVKVQDIEQLKDVKECLWFVLEILMAKNENNSHAFIRKMVENIKQTKDAQGPDDAKMNEKLYTVCDVAMNIIMSKSTTYSLESPKDPVLPARFFTQPDKNFSNTKNYLPPEMKSFFTPGKPKTTNVLGAVNKPLSSAGKQSQTKSSRMETVSNASSSSNPSSPGRIKGRLDSSEMDHSENEDYTMSSPLPGKKSDKRDDSDLVRSELEKPRGRKKTPVTEQEEKLGMDDLTKLVQEQKPKGSQRSRKRGHTASESDEQQWPEEKRLKEDILENEDEQNSPPKKGKRGRPPKPLGGGTPKEEPTMKTSKKGSKKKSGPPAPEEEEEEERQSGNTEQKSKSKQHRVSRRAQQRAESPESSAIESTQSTPQKGRGRPSKTPSPSQPKKNVRVGRSKQAATKENDSSEEVDVFQGSSPVDDIPQEETEEEEVSTVNVRRRSAKRERR
Consider B1, for which the binding entry is recorded as “binds”.

B2: SMARCAL1 (protein, UniProt Q9NZC9 1-954)
chain: MSLPLTEEQRKKIEENRQKALARRAEKLLAEQHQRTSSGTSIAGNPFQAKQGPSQNFPRESCKPVSHGVIFKQQNLSSSSNADQRPHDSHSFQAKGIWKKPEEMPTACPGHSPRSQMALTGISPPLAQSPPEVPKQQLLSYELGQGHAQASPEIRFTPFANPTHKPLAKPKSSQETPAHSSGQPPRDAKLEAKTAKASPSGQNISYIHSSSESVTPRTEGRLQQKSGSSVQKGVNSQKGKCVRNGDRFQVLIGYNAELIAVFKTLPSKNYDPDTKTWNFSMNDYSALMKAAQSLPTVNLQPLEWAYGSSESPSTSSEGQAGLPSAPSLSFVKGRCMLISRAYFEADISYSQDLIALFKQMDSRRYDVKTRKWSFLLEEHSKLIAKVRCLPQVQLDPLPTTLTLAFASQLKKTSLSLTPDVPEADLSEVDPKLVSNLMPFQRAGVNFAIAKGGRLLLADDMGLGKTIQAICIAAFYRKEWPLLVVVPSSVRFTWEQAFLRWLPSLSPDCINVVVTGKDRLTAGLINIVSFDLLSKLEKQLKTPFKVVIIDESHFLKNSRTARCRAAMPVLKVAKRVILLSGTPAMSRPAELYTQIIAVKPTFFPQFHAFGLRYCDAKRMPWGWDYSGSSNLGELKLLLEEAVMLRRLKSDVLSQLPAKQRKIVVIAPGRINARTRAALDAAAKEMTTKDKTKQQQKDALILFFNRTAEAKIPSVIEYILDLLESGREKFLVFAHHKVVLDAITQELERKHVQHIRIDGSTSSAEREDLCQQFQLSERHAVAVLSITAANMGLTFSSADLVVFAELFWNPGVLIQAEDRVHRIGQTSSVGIHYLVAKGTADDYLWPLIQEKIKVLAEAGLSETNFSEMTESTDYLYKDPKQQKIYDLFQKSFEKEGSDMELLEAAESFDPGSASGTSGSSSQNMGDTLDESSLTASPQKKRRFEFFDNWDSFTSPL
For the molecule B2, the binding result was “binds”.

B3: SMC1A (protein, UniProt Q14683 1-1233)
chain: MGFLKLIEIENFKSYKGRQIIGPFQRFTAIIGPNGSGKSNLMDAISFVLGEKTSNLRVKTLRDLIHGAPVGKPAANRAFVSMVYSEEGAEDRTFARVIVGGSSEYKINNKVVQLHEYSEELEKLGILIKARNFLVFQGAVESIAMKNPKERTALFEEISRSGELAQEYDKRKKEMVKAEEDTQFNYHRKKNIAAERKEAKQEKEEADRYQRLKDEVVRAQVQLQLFKLYHNEVEIEKLNKELASKNKEIEKDKKRMDKVEDELKEKKKELGKMMREQQQIEKEIKEKDSELNQKRPQYIKAKENTSHKIKKLEAAKKSLQNAQKHYKKRKGDMDELEKEMLSVEKARQEFEERMEEESQSQGRDLTLEENQVKKYHRLKEEASKRAATLAQELEKFNRDQKADQDRLDLEERKKVETEAKIKQKLREIEENQKRIEKLEEYITTSKQSLEEQKKLEGELTEEVEMAKRRIDEINKELNQVMEQLGDARIDRQESSRQQRKAEIMESIKRLYPGSVYGRLIDLCQPTQKKYQIAVTKVLGKNMDAIIVDSEKTGRDCIQYIKEQRGEPETFLPLDYLEVKPTDEKLRELKGAKLVIDVIRYEPPHIKKALQYACGNALVCDNVEDARRIAFGGHQRHKTVALDGTLFQKSGVISGGASDLKAKARRWDEKAVDKLKEKKERLTEELKEQMKAKRKEAELRQVQSQAHGLQMRLKYSQSDLEQTKTRHLALNLQEKSKLESELANFGPRINDIKRIIQSREREMKDLKEKMNQVEDEVFEEFCREIGVRNIREFEEEKVKRQNEIAKKRLEFENQKTRLGIQLDFEKNQLKEDQDKVHMWEQTVKKDENEIEKLKKEEQRHMKIIDETMAQLQDLKNQHLAKKSEVNDKNHEMEEIRKKLGGANKEMTHLQKEVTAIETKLEQKRSDRHNLLQACKMQDIKLPLSKGTMDDISQEEGSSQGEDSVSGSQRISSIYAREALIEIDYGDLCEDLKDAQAEEEIKQEMNTLQQKLNEQQSVLQRIAAPNMKAMEKLESVRDKFQETSDEFEAARKRAKKAKQAFEQIKKERFDRFNACFESVATNIDEIYKALSRNSSAQAFLGPENPEEPYLDGINYNCVAPGKRFRPMDNLSGGEKTVAALALLFAIHSYKPAPFFVLDEIDAALDNTNIGKVANYIKEQSTCNFQAIVISLKEEFYTKAESLIGVYPEQGDCVISKVLTFDLTKYPDANPNPNEQ
Take B3: the binding entry is reported as “binds”.
